The values below come from paper PMC3462190, “A Peptidic Unconjugated GRP78/BiP Ligand Modulates the Unfolded Protein Response and Induces Prostate Cancer Cell Death” (PLoS ONE, 2012).

This data set in a line: Circular dichroism spectroscopy. The data set is classed as physicochemical. Conditions: for secondary structure by CD: HA-tagged fragment, 20 mM KHPO4, pH 6.8, 12 µM (N-term) or 11 µM (C-term).

With “N-terminal peptide: N-terminal 40 residues of the Bag-1 peptide (Bag-1L 202–241) (TPLSALGIQDGCRVMLIGKKNSPQEEVELKKLKHLEKSVE; left off: GST, end not stated, kept)”, the “secondary structure by CD” value is on record as “entirely unstructured”. Still for that read-out and setting: as for “C-terminal peptide: 28 C-terminal fragment of the Bag-1 peptide (Bag-1L 241–269) (EKIADQLEELNKELTGIQQGFLPKDLQAE; left off: GST, end not stated, kept)”, the entry is “entirely unstructured”.

B1: Bag-1 peptide: internal sequence of 68 amino acids of Bag-1 (Bag1-L 202–269), HA-tagged, expressed from pcDNA3 (peptide)
chain: TPLSALGIQDGCRVMLIGKKNSPQEEVELKKLKHLEKSVEKIADQLEELNKELTGIQQGFLPKDLQAE
modifications: left off: HA, end not stated, kept
Take B1: the α-helical residues (CD estimate) was about 17 residues. Moreover, under “CD, 20 mM KHPO4 buffer, pH 6.8, 20°C, deconvolution”, the α-helical content entry was “approximately 25%”.
